Assay results reported in patent publication US8232099B2, “Method for transcription/degradation dual control of protein by antibiotic” (Japan Science and Technology Agency, priority 2007, dated 2012).
For at least one compound, name, drawing or mass did not settle the structure.

System: pOSTet15-TetRhCre
Test: Cre recombination reporter (Venus to DsRed1) in HEp-2, dual control
Format: cell-based, human
Source text: As vectors to control the expression of the […] Cre protein, three types of vectors were constructed for: control by protein degradation only, control by transcription only and dual control. […] Three types of vectors were constructed, “pEB6CAG-TetRhCre”, which enables control by degradation alone, and created by turning the hCre cDNA into TetRhCre which enables degradation control by doxycycline, and which was then integrated into the constitutive gene expression vector “pEB6CAG” described above; “pOSTet15-hCre”, which enables control by transcription alone and was created by integrating hCre cDNA into “pOSTet15”: “pOSTet15-TetRhCre”, which enables dual control and created by integrating TetRhCre into “pOSTet15”. […] The expression effect of Cre can be detected simply from this change in fluorescence wavelength (FIG. 10).
Using a commercially available lipofection reagent, this DNA was introduced into the human cell line HEp-2, the cell line was cultured for four days in the presence of 1.5 mg/ml G418 and 0.1 mg/ml zeocin, and only cells with the two species of DNA introduced were selected. Fluorescences at two wavelengths, yellow and red, were measured with a flow cytometer. […]

C[C@H]1c2cccc(O)c2C(=O)C2=C(O)[C@]3(O)C(=O)C(C(N)=O)=C(O)[C@@H](N(C)C)[C@@H]3[C@@H](O)[C@@H]21 [doxycycline]
dependency of efficiency of recombination on concentration (0.001 μg/ml to 1.0 μg/ml, one day or three days): rose concentration-dependently
treatment time sufficient for recombination (one day vs three days treatment): 24 h
